Laboratory results taken from PubChem BioAssay AID1117319 (Southern Research Institute, 2015).
The whole screen tested about 260,000 compounds, of which about 1,500 (0.58%) were called active. The inconclusive results got no clear call from the source; some entries with a clear call stand among them for comparison.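 How the source made its calls: active means inhibition above a set limit at one or more doses, reproduced on every date tested; inconclusive means results disagree between test dates, or hit never tested in dose response; inactive means the rest.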

Amino acid sequences for entries named in this document (tags omitted). A change or cut given only in a name is not applied to a line headed by its entry.
UniProt P69720: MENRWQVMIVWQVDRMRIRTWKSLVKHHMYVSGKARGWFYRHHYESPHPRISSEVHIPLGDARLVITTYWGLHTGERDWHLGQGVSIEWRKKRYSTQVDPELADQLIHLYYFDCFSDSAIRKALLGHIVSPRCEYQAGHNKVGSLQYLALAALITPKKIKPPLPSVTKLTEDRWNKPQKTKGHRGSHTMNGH
UniProt P69721: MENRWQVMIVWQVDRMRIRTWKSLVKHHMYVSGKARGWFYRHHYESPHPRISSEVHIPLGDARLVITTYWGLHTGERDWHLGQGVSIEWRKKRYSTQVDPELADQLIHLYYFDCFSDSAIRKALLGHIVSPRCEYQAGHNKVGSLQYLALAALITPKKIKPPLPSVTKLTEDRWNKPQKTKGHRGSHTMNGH
UniProt P69722: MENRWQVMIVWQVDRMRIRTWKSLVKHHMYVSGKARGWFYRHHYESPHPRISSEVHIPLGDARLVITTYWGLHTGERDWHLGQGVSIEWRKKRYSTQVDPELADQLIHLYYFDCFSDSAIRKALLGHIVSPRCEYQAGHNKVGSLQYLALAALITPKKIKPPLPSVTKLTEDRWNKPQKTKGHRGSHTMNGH
UniProt P69723: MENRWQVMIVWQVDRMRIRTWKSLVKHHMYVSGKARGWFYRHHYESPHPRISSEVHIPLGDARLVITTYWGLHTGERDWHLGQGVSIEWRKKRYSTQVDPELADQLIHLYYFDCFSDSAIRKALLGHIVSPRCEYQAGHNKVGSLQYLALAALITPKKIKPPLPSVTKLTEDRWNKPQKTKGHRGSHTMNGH
UniProt Q9HC16: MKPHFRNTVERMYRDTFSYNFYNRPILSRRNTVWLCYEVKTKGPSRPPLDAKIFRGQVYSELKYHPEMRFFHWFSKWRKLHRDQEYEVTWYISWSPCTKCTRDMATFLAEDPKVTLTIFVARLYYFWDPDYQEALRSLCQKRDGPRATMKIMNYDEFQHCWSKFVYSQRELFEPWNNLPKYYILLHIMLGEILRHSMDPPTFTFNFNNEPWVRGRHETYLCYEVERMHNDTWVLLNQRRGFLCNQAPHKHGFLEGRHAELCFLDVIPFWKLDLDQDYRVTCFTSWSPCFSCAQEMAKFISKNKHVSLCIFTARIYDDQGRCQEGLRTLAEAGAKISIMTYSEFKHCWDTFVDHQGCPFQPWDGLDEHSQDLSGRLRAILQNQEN

biological target: Virion infectivity factor (Human immunodeficiency virus type 1 group M subtype B (isolate BH10)) + Virion infectivity factor (Human immunodeficiency virus type 1 group M subtype B (isolate BRU/LAI)) + Virion infectivity factor (Human immunodeficiency virus type 1 group M subtype B (isolate PCV12)) + Virion infectivity factor (Human immunodeficiency virus type 1 group M subtype B (isolate HXB2)) + DNA dC->dU-editing enzyme APOBEC-3G (Homo sapiens) (UniProt P69720+P69721+P69722+P69723+Q9HC16); assay: inhibitors of Vif binding to APOBEC3G peptide, primary screen, biochemical, TR-FRET, GST-Vif 1-94, biotin-A3G peptide, dose response retest (AID 1117319); details: active compounds read high;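 further: Vif residues 1-94 fused to GST binding biotinylated APOBEC3G peptide 110-148; 0% = full assay without inhibitor and 100% = GST in place of GST-Vif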

Structure (SMILES) | inhibition
Cc1nc2ccccc2c2oc(C(=O)Nc3ccc4c(c3)OCCO4)cc12 | inconclusive: 62.5%
O=C(Nc1nc2ccccc2n1CCN1CCCCC1)c1ccc(Cl)cc1 | inconclusive: 39.6%
O=C(NCCc1cccs1)C12CN(Cc3ccccc3)CC1C(c1cccc([N+](=O)[O-])c1)=NO2 (configuration not stated) | inconclusive: 39.6%
CCOC(=O)c1cnc(-c2ccccc2)nc1Oc1ccccc1 | inconclusive: 52%
CS(=O)(=O)c1ccc2c(c1)sc1nc(=O)c(/C=C3/C=CC(=O)C(O)=C3)c(N)n12 | inconclusive: 55%
N/N=C(/Cc1nc2ccccc2[nH]1)c1ccc([N+](=O)[O-])cc1 | inconclusive: 43%
Cc1onc(-c2ccccc2)c1-c1n[nH]c(=S)n1-c1ccc(C(=O)O)cc1 | inconclusive: 53.8%
CCOC(=O)N1CCN(Cc2nc3c(c(=O)[nH]c(=O)n3C)n2Cc2ccccc2C)CC1 | inactive: 23.6%
Cc1nc(SCC(=O)O)c(C#N)c2c1CCCC2 | inconclusive: 45.1%
CC(=O)C1=C(C)NC(SCC(N)=O)=C(C#N)C1C (configuration not stated) | inconclusive: 37.2%
CC1CCN(S(=O)(=O)c2ccc(NC(=O)CN3CCCC(C)C3)cc2)CC1 (configuration not stated) | inconclusive: 33.9%
CSc1cccc(NC(=S)NC(=O)CCc2ccccc2)c1 | inconclusive: 34.6%
O=c1cc(CSc2nnnn2-c2ccccc2)[nH]c2[nH]n(-c3ccccc3)c(=O)c12 | inconclusive: 57.2%
O=C(COC(=O)c1cc(-c2ccco2)nc2ccccc12)NCc1ccccc1 | inactive: 27.6%
COc1ccc(C(=O)c2cc(C(C)=O)c(Nc3ccccc3)s2)cc1 | inconclusive: 57%
Cc1nc2sc3c(c2c(=O)o1)CCCC3 | inconclusive: 51.7%
CC(=O)c1ccc(N2CCN(C(=O)C3CCN(S(=O)(=O)Cc4ccccc4)CC3)CC2)cc1 | inconclusive: 38.2%
Cc1ccccc1NC(=O)CCS(=O)(=O)c1ccc(Br)cc1 | inactive: 19.3%
Cc1ccc(CN2CCc3c(OCC(=O)Nc4cc(C)ccc4C)cccc3C2=O)cc1 | inconclusive: 41.6%
O=C(c1ccc([N+](=O)[O-])c(CS(=O)(=O)c2ccc(Cl)cc2)c1)N1CCCC1 | inconclusive: 51.7%
COCCNC(=O)C(=O)NCCN1CCNCC1 | inconclusive: 43.2%
CCS(=O)(=O)n1nc(-c2ccc(Cl)cc2)nc1SCc1ccccc1 | inconclusive: 46.9%

Structures listed so far with a thiophene ring, fused or not:
Structure (SMILES) | inhibition
O=C(NCCc1cccs1)C12CN(Cc3ccccc3)CC1C(c1cccc([N+](=O)[O-])c1)=NO2 (configuration not stated) | inconclusive: 39.6%
COc1ccc(C(=O)c2cc(C(C)=O)c(Nc3ccccc3)s2)cc1 | inconclusive: 57%
Cc1nc2sc3c(c2c(=O)o1)CCCC3 | inconclusive: 51.7%

Following part.

Structure (SMILES) | inhibition
O=C1CCCc2oc3c(cc(NS(=O)(=O)c4ccc5c6c(cccc46)C(=O)N5)c4ccccc43)c21 | inconclusive: 44.2%
Cn1c(N)c(C#N)c2c(c1=S)CSC(C)(C)C2 | inconclusive: 59.6%
COC(=O)CCC(=O)OC1(C)C(=O)C2=CN(CC(C)C)C(c3ccc(OC)cc3)=CC2=C(Br)C1=O (configuration not stated) | inconclusive: 44.3%
CCOC(=O)c1nn(-c2ccccc2)c(C#N)c1N | inconclusive: 51.6%
CCOc1ccccc1N1CSC2=C(C#N)C(c3c(OC)ccc4ccccc34)CC(=O)N2C1 (configuration not stated) | inconclusive: 31.3%
Cc1cc(-c2csc(N)n2)c(C)n1-c1ccccc1 | inconclusive: 53.2%
COCCN(CC(=O)NC1CCCCC1)C(=O)c1csnn1 | inconclusive: 47.8%
O=C(CCCN1C(=O)/C(=C/c2ccco2)SC1=S)Nc1ccccc1C(=O)O | inconclusive: 43.9%
O=C(Nc1ccc(S(=O)(=O)N2CCOCC2)cc1)c1ccc2c(c1)S(=O)(=O)c1ccccc1C2=O | inconclusive: 55.5%
COC(=O)Cn1ncc2c3ccccc3n(C)c2c1=O | inactive: 4.81%
CC[C@@H]1CC=C[C@H]2[C@H]1C(=O)N(Cc1ccccc1)[C@H]2c1ccoc1 | inconclusive: 55.1%
O=C1Nc2ccccc2/C1=N/c1sc2c(c1C(=O)NCCc1ccccc1)CCCC2 | inconclusive: 51.6%
COc1cc(/C=C/C(=O)N2C(=O)c3cccc(N)c3C2=O)cc(OC)c1OC | inconclusive: 42.1%
O=C(OCC1CC(c2ccccc2)=NO1)c1ccco1 (configuration not stated) | inconclusive: 39.5%
CC(=O)N/C(=C\c1ccccc1)C(=O)OCC(=O)N(CC(C)C)c1c(N)n(Cc2ccccc2)c(=O)[nH]c1=O | inactive: 4.02%
Cc1cc(C)nc(NC(=O)c2c(-c3ccccc3Cl)noc2C)n1 | inconclusive: 33.3%
Cc1ccc(CN2CCN(/N=C/c3cccn3C)CC2)c(C)c1 | inconclusive: 60.6%
NS(=O)(=O)c1ccc(N/N=C/c2ccc(O)cc2O)c([N+](=O)[O-])c1 | inactive: -13.8%
NC(=O)N1c2ccccc2C=Cc2ccccc21 | inconclusive: 33.8%
COc1ccc(-c2cnc3c(c2)CCC3(C#N)C#N)cc1 | inconclusive: 43.1%
COc1ccc(NC(=O)c2oc3ccccc3c2NC(=O)c2ccco2)c(OC)c1 | inconclusive: 39.2%
CCCCN(CCCC)/C(N)=N/c1nc(C)cc(C)n1 | inconclusive: 36.1%

Structure (SMILES) | inhibition
CN(C)c1cc[nH]c(=O)c1C#N | inconclusive: 45.5%
COC(=O)c1sccc1NC(=O)c1cccnc1 | inconclusive: 47%
Cc1cc(S(=O)(=O)NCc2cccnc2)ccc1F | inconclusive: 41.1%
O=[N+]([O-])C(=C1Nc2ccccc2N1)/C(Cl)=C(/Cl)Br | inconclusive: 50.1%
COc1ccc(C)c2sc(NC(=O)C3=COCCO3)nc12 | inconclusive: 26.2%
C=CCc1cccc(CNc2ccc(Br)cc2)c1O | inconclusive: 55.2%
COc1ccc(Nc2c(C)cccc2C)cc1 | inactive: -5.1%
CCOC(=O)C1CCN(c2c(NCc3ccc(C(=O)NC4CCCC4)cc3)c(=O)c2=O)CC1 | inactive: 0.11%
Cc1ccccc1S(=O)(=O)Cc1ccc(C(=O)N2CCN(c3ncccn3)CC2)o1 | inconclusive: 61.3%
C=C(C)c1ccc(C(C)(C)NC(=O)N(Cc2ccccc2)Cc2ccco2)cc1 | inconclusive: 46.2%
O=C(N/N=C/c1c[nH]c2ccccc12)c1ccn(Cc2ccc(Cl)cc2Cl)n1 | inconclusive: 60%
O=C1CC(C(=O)N(CC2CCCO2)C(C(=O)NC2CCCCC2)c2ccncc2)CS1 (configuration not stated) | inconclusive: 41.4%
CC1=C(C)CC(C(=O)NCc2ccc3c(c2)OCO3)C(C(=O)O)C1 (configuration not stated) | inconclusive: 60.5%
CCOC(=O)c1c(-c2ccccc2)cn2ccccc12 | inconclusive: 33.2%
O=C(NNC1=C(C(=O)C(F)(F)F)CCC1)c1cccc(O)c1 | inconclusive: 45.8%
CCCCC(CC)CNS(=O)(=O)c1ccc2c(c1)CCN2C(=O)CCC(=O)O (configuration not stated) | inconclusive: 47.9%
O=C(Nc1ccc2c(c1)OCCO2)NC12CC3CC(CC(C3)C1)C2 | inconclusive: 44.8%
CC(=O)Oc1ccc(N2C(=O)C3C4C=CC(O4)C3C2=O)cc1 (configuration not stated) | inactive: -0.5%
Cc1ccc(-c2nc(-c3cccnc3)sc2CC(=O)O)cc1 | inconclusive: 33%
Cc1ccc(OCC(=O)c2ccc(Cl)s2)c([N+](=O)[O-])n1 | inconclusive: 61.9%
Cc1nn(-c2ccccc2)c2c1C(c1ccc(O)c(O)c1)N1C(=N2)C(Nc2ccccc2)=Nc2ccccc21 (configuration not stated) | inconclusive: 34.3%
Nc1ncnc2c1ncn2[C@@H]1O[C@H](CNC(=O)[C@@H]2C[C@H](F)CN2)[C@@H](O)[C@H]1O | inactive: -0.68%

Structure (SMILES) | inhibition
CC(OCc1ccccc1)C(NC(=O)OC(C)(C)C)C(=O)NCC1CCCO1 (configuration not stated) | inconclusive: 33.1%
C/C(=N\NC(=O)c1ccc(=O)[nH]n1)c1cccnc1 | inactive: 3.66%
COc1c(Cl)cc(Cl)cc1C(=O)Nc1ccc(C(=O)O)cc1 | inconclusive: 37.3%
O=C(CSc1nc2cc(C(F)(F)F)ccc2n1Cc1ccccc1)NC1CCS(=O)(=O)C1 (configuration not stated) | inconclusive: 47%
O=C(CCCc1nc(-c2ccccc2)no1)Nc1cccnc1 | inconclusive: 37.2%
CCC(C(=O)Nc1nnc(-c2ccco2)s1)c1ccccc1 (configuration not stated) | inconclusive: 40.4%
c1ccc2c(c1)oc1c(Nc3ccc(CN4CCOCC4)cc3)ncnc12 | inconclusive: 47.5%
CC(=O)Oc1ccc(N2C(=O)C3C(C2=O)C(C(=O)c2ccc(Cl)cc2)N2CCCC32)cc1 (configuration not stated) | inconclusive: 59.9%
CCC(=O)N1CCCc2cc(S(=O)(=O)N3CCN(c4ncccn4)CC3)ccc21 | inconclusive: 25.2%
CCOC(=O)c1ccc(NC(=O)NC2CC3CCC(C2)N3Cc2nnnn2C(C)(C)C)cc1 (configuration not stated) | inconclusive: 39.9%
CC1Cc2ccccc2N1Cc1nc2cc(Cl)ccc2c(=O)[nH]1 (configuration not stated) | inactive: 7.91%
COc1ccc(C(=O)N[C@H]2COC(C)(C)O[C@H]2c2ccccc2)cc1 | inconclusive: 38.7%
c1csc(-c2nn[nH]n2)c1 | inconclusive: 44.3%
Cc1ccc(N=Nc2c(O)c3ccccc3[nH]c2=O)c(S(=O)(=O)N(C)C)c1 | inconclusive: 43.7%
CCCCCC(=O)Nc1ccccc1N1CCN(c2ccccc2)CC1 | inconclusive: 37.6%
Cc1ccn2cc(C34CC5CC(CC(C5)C3)C4)nc2c1 | inactive: 17%
COc1cccc(C2=CC(c3cc(OC)ccc3OC)n3nnnc3N2)c1 (configuration not stated) | inconclusive: 33.2%
Cc1ccc(C(=O)N/C(=C/c2ccco2)C(=O)NC2CCS(=O)(=O)C2)cc1 (configuration not stated) | inactive: -1.97%
CC(C)c1ccc(CN2CCC(C(=O)NCc3cccnc3)CC2)cc1 | inconclusive: 33.7%
O=C(CSc1nnc(Cn2cnc3ccccc32)o1)c1ccccc1 | inconclusive: 45.6%
CC(=O)OCCCNc1cc(Sc2ccc(C)cc2)c2nonc2c1[N+](=O)[O-] | inactive: 15.4%
